# Drug screen on melanoma cell lines: cell count

Values as published with doi:10.1371/journal.pone.0140310, rounded.

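The test systems are human melanoma cell lines, treated with a pair of drugs for 72 h and then stained and imaged. The read-out is cell count (nuclei) in % of the DMSO control; lower values mean stronger growth inhibition or killing. Every drug was used at one fixed concentration, the lower of two screened (a fifth of the higher). These are primary screening values without error estimates.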
An unselected part of the screen is shown.

First drug in all entries: tanespimycin, 0.002 µM, C=CCNC1=C2C[C@@H](C)C[C@H](OC)[C@H](O)[C@@H](C)/C=C(\C)[C@H](OC(N)=O)[C@@H](OC)/C=C\C=C(/C)C(=O)NC(=CC1=O)C2=O

- Cn1cnc2c(F)c(Nc3ccc(Br)cc3Cl)c(C(=O)NOCCO)cc21 at 0.015 µM | C32: 75.7; MEL-HO: 90.5; G-361: 84.6; A101D: 91.7; A2058: 98.7; A375: 71.5; LOX IMVI: 99.5; IST-MEL1: 86.4
- COCC[n+]1c2c(n(Cc3cnccn3)c1C)C(=O)c1ccccc1C2=O at 0.0004 µM | C32: 115; MEL-HO: 114; G-361: 99.6; A101D: 92.3; A2058: 96.3; A375: 92.6; LOX IMVI: 58.9; IST-MEL1: 91.7
- Nc1ccn([C@@H]2O[C@H](CO)[C@@H](O)C2(F)F)c(=O)n1 at 0.0004 µM | C32: 85.9; MEL-HO: 93.0; G-361: 84.2; A101D: 87.0; A2058: 91.1; A375: 102; LOX IMVI: 54.8; IST-MEL1: 69.5
- Cn1c(=O)n(-c2ccc(C(C)(C)C#N)cc2)c2c3cc(-c4cnc5ccccc5c4)ccc3ncc21 at 0.004 µM | C32: 88.5; MEL-HO: 94.2; G-361: 85.5; A101D: 83.1; A2058: 90.9; A375: 102; LOX IMVI: 84.4; IST-MEL1: 90.1
- C=C(c1ccc(C(=O)O)cc1)c1cc2c(cc1C)C(C)(C)CCC2(C)C at 2 µM | C32: 107; MEL-HO: 88.9; G-361: 84.5; A101D: 83.7; A2058: 105; A375: 86.7; LOX IMVI: 96.0; IST-MEL1: 95.9
- Nc1ncn([C@H]2C[C@H](O)[C@@H](CO)O2)c(=O)n1 at 0.1 µM | C32: 86.7; MEL-HO: 71.8; G-361: 85.5; A101D: 81.0; A2058: 91.5; A375: 79.3; LOX IMVI: 105; IST-MEL1: 81.3
- CNC(=O)c1cc(Oc2ccc(NC(=O)Nc3ccc(Cl)c(C(F)(F)F)c3)cc2)ccn1 at 0.4 µM | C32: 91.5; MEL-HO: 95.9; G-361: 97.6; A101D: 95.3; A2058: 96.1; A375: 98.6; LOX IMVI: 101; IST-MEL1: 91.9
- Cn1cc(C2=C(c3cn(C4CCN(Cc5ccccn5)CC4)c4ccccc34)C(=O)NC2=O)c2ccccc21 at 0.8 µM | C32: 111; MEL-HO: 107; G-361: 105; A101D: 98.6; A2058: 100; A375: 87.1; LOX IMVI: 150; IST-MEL1: 95.0
- CC1(C)CCC(c2ccc(Cl)cc2)=C(CN2CCN(c3ccc(C(=O)NS(=O)(=O)c4ccc(N[C@H](CCN5CCOCC5)CSc5ccccc5)c(S(=O)(=O)C(F)(F)F)c4)cc3)CC2)C1 at 0.4 µM | C32: 29.1; MEL-HO: 81.7; G-361: 78.5; A101D: 52.8; A2058: 102; A375: 71.2; LOX IMVI: 47.7; IST-MEL1: 70.8
- COc1cc([C@@H]2c3cc4c(cc3[C@@H](O[C@@H]3O[C@@H]5CO[C@@H](C)O[C@H]5[C@H](O)[C@H]3O)[C@H]3COC(=O)[C@H]23)OCO4)cc(OC)c1O at 0.02 µM | C32: 72.2; MEL-HO: 117; G-361: 79.7; A101D: 90.7; A2058: 93.9; A375: 108; LOX IMVI: 90.4; IST-MEL1: 110
- C[C@]1(c2nc3c(C(N)=O)cccc3[nH]2)CCCN1 at 1.4 µM | C32: 75.9; MEL-HO: 103; G-361: 86.4; A101D: 93.4; A2058: 78.0; A375: 80.9; LOX IMVI: 96.3; IST-MEL1: 89.8
- C#Cc1cccc(Nc2ncnc3cc(OCCOC)c(OCCOC)cc23)c1 at 0.8 µM | C32: 46.4; MEL-HO: 97.7; G-361: 84.9; A101D: 99.0; A2058: 99.6; A375: 85.7; LOX IMVI: 80.6; IST-MEL1: 96.7
- CS(=O)(=O)c1ccc(C(=O)Nc2ccc(Cl)c(-c3ccccn3)c2)c(Cl)c1 at 1 µM | C32: 88.6; MEL-HO: 119; G-361: 82.7; A101D: 104; A2058: 100; A375: 119; LOX IMVI: 156; IST-MEL1: 105
- Cn1nnc2c(C(N)=O)ncn2c1=O at 2 µM | C32: 46.9; MEL-HO: 101; G-361: 84.0; A101D: 89.0; A2058: 88.6; A375: 87.4; LOX IMVI: 124; IST-MEL1: 101
- CN(c1ncccc1CNc1nc(Nc2ccc3c(c2)CC(=O)N3)ncc1C(F)(F)F)S(C)(=O)=O at 0.08 µM | C32: 74.0; MEL-HO: 82.6; G-361: 90.6; A101D: 82.1; A2058: 90.9; A375: 69.1; LOX IMVI: 104; IST-MEL1: 93.2
- CCCCCCCCCCCCCCCCCCOP(=O)([O-])OC1CC[N+](C)(C)CC1 at 0.4 µM | C32: 73.0; MEL-HO: 86.3; G-361: 85.6; A101D: 105; A2058: 99.8; A375: 77.4; LOX IMVI: 88.4; IST-MEL1: 92.8
- N.N.[Cl][Pt][Cl] at 1.6 µM | C32: 95.7; MEL-HO: 90.9; G-361: 97.0; A101D: 87.2; A2058: 96.7; A375: 98.1; LOX IMVI: 95.0; IST-MEL1: 99.1
- C[As](C)SC[C@H](NC(=O)CC[C@H](N)C(=O)O)C(=O)NCC(=O)O at 0.4 µM | C32: 44.6; MEL-HO: 96.1; G-361: 97.0; A101D: 93.3; A2058: 107; A375: 85.1; LOX IMVI: 92.9; IST-MEL1: 103
- Clc1ccc(Nc2nnc(Cc3ccncc3)c3ccccc23)cc1 at 2 µM | C32: 45.0; MEL-HO: 88.6; G-361: 95.0; A101D: 74.8; A2058: 116; A375: 102; LOX IMVI: 82.0; IST-MEL1: 103
- CO[C@H]1C[C@@H]2CC[C@@H](C)[C@@](O)(O2)C(=O)C(=O)N2CCCC[C@H]2C(=O)O[C@H]([C@H](C)C[C@@H]2CC[C@@H](OCCO)[C@H](OC)C2)CC(=O)[C@H](C)/C=C(\C)[C@@H](O)[C@@H](OC)C(=O)[C@H](C)C[C@H](C)/C=C/C=C/C=C/1C at 0.02 µM | C32: 74.9; MEL-HO: 66.4; G-361: 72.0; A101D: 71.9; A2058: 61.9; A375: 45.3; LOX IMVI: 86.2; IST-MEL1: 74.4
- Cc1cc(Nc2cc(N3CCN(C)CC3)nc(Sc3ccc(NC(=O)C4CC4)cc3)n2)n[nH]1 at 0.006 µM | C32: 80.8; MEL-HO: 97.1; G-361: 90.8; A101D: 81.1; A2058: 87.4; A375: 102; LOX IMVI: 70.3; IST-MEL1: 99.5
- CCN(CC)CCNC(=O)c1c(C)[nH]c(/C=C2\C(=O)Nc3ccc(F)cc32)c1C at 0.4 µM | C32: 94.3; MEL-HO: 116; G-361: 131; A101D: 86.7; A2058: 83.9; A375: 75.1; LOX IMVI: 96.2; IST-MEL1: 105
- Cn1cncc1[C@@](N)(c1ccc(Cl)cc1)c1ccc2c(c1)c(-c1cccc(Cl)c1)cc(=O)n2C at 0.01 µM | C32: 21.6; MEL-HO: 93.9; G-361: 87.5; A101D: 82.0; A2058: 82.9; A375: 88.8; LOX IMVI: 303; IST-MEL1: 98.8
- O=C(O)[C@@H]1[O][Sb](=[O])([O][Sb]2(=[O])[O][C@H]([C@H](O)CO)[C@H](O)[C@H](C(=O)O)[O]2)[O][C@H]([C@H](O)CO)[C@@H]1O (some centres undefined) at 2 µM | C32: 82.8; MEL-HO: 116; G-361: 113; A101D: 118; A2058: 109; A375: 152; LOX IMVI: 140; IST-MEL1: 117

The last 2 entries again:

{"partner": "Cn1cncc1[C@@](N)(c1ccc(Cl)cc1)c1ccc2c(c1)c(-c1cccc(Cl)c1)cc(=O)n2C at 0.01 µM", "C32": 21.6, "MEL-HO": 93.9, "G-361": 87.5, "A101D": 82.0, "A2058": 82.9, "A375": 88.8, "LOX IMVI": 303, "IST-MEL1": 98.8}
{"partner": "O=C(O)[C@@H]1[O][Sb](=[O])([O][Sb]2(=[O])[O][C@H]([C@H](O)CO)[C@H](O)[C@H](C(=O)O)[O]2)[O][C@H]([C@H](O)CO)[C@@H]1O (some centres undefined) at 2 µM", "C32": 82.8, "MEL-HO": 116, "G-361": 113, "A101D": 118, "A2058": 109, "A375": 152, "LOX IMVI": 140, "IST-MEL1": 117}